Values from PubChem BioAssay AID1259254 (NCATS, 2017).

Test: 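Genome-wide screen for genes that prevent DNA re-replication in cancer cells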 (primary screen)
System: human HCT116 colorectal cancer cells
Knock-down reagent: single siRNA against human genes
Timing: 3 days
Measured: 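Imaged Hoechst DNA stain sorts each cell into a cycle phase by DNA amount; per plate, G2 fraction set to 0% for non-targeting and 100% for GMNN siRNA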
Direction: G2 robust z-score and G2 cells, % of GMNN control: higher = more G2 cells, more excess DNA replication; raw share of cells in G2: higher = larger share of cells with G2 DNA content
Active means: 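Active siRNAs have a G2 robust z of 5 or more median absolute deviations over the median, which in these data means about 38% or higher of GMNN control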
This is an unselected part of about 59,000 reagents tested. Over the whole deposit, about 1,550 (2.6%) are marked active. 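G2 share is only a proxy for re-replication; each gene was hit by three separate siRNAs, and active genes were retested.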 Raw values are not corrected between plates. The numbers tell different reagents against one gene apart. Not given: the amount of reagent.

gene knocked down,siRNA no.,G2 robust z-score,"G2 cells, % of GMNN control",raw share of cells in G2 (%),call
C15orf32,1,-0.501,-0.556,3.64,inactive
C15orf32,2,-0.683,-1.84,2.35,inactive
C15orf32,3,-0.0547,2.58,3.97,inactive
TAS2R45,1,0.59,7.12,6.24,inactive
TAS2R45,2,-0.268,1.08,3.46,inactive
TAS2R45,3,-0.341,0.569,3.44,inactive
COX6C,1,-0.168,1.78,5.64,inactive
COX6C,2,0.728,8.09,7.85,inactive
COX6C,3,-0.166,1.8,4.71,inactive
SP100,1,-1.34,-6.48,1.81,inactive
SP100,2,-1.77,-9.48,1.3,inactive
SP100,3,0.163,4.11,7.07,inactive
ZNF660,1,0.541,6.77,5.42,inactive
ZNF660,2,-0.706,-2,2.47,inactive
ZNF660,3,-0.413,0.0619,3.55,inactive
GAS6-AS1,1,0.462,6.22,6.03,inactive
GAS6-AS1,2,1.41,12.9,7.94,inactive
GAS6-AS1,3,-0.13,2.05,3.39,inactive
CTSLP3,1,-0.122,2.11,4.44,inactive
CTSLP3,2,0.331,5.3,5.18,inactive
CTSLP3,3,0.0275,3.16,4.07,inactive
TALDO1,1,-0.232,1.33,4.59,inactive
TALDO1,2,-0.452,-0.215,4.9,inactive
TALDO1,3,-0.692,-1.9,3.95,inactive
MMS22L,1,1.97,16.8,9.69,inactive
MMS22L,2,0.747,8.22,5.95,inactive
MMS22L,3,0.942,9.6,6.26,inactive
GPS1,1,1.06,10.4,7.36,inactive
GPS1,2,0.43,5.99,7.41,inactive
GPS1,3,1.18,11.2,9.54,inactive
GAL3ST1,1,2.24,18.7,12.4,inactive
GAL3ST1,2,0.00743,3.02,6.34,inactive
GAL3ST1,3,0.0801,3.53,4.41,inactive
PNPLA5,1,-0.938,-3.63,2.61,inactive
PNPLA5,2,-1.21,-5.54,1.2,inactive
PNPLA5,3,0.397,5.76,5.08,inactive
FEN1,1,6.07,45.7,22.6,active
FEN1,2,-0.725,-2.13,2.9,inactive
FEN1,3,-0.39,0.224,5.32,inactive
RBM3,1,-0.585,-1.15,3.76,inactive
RBM3,2,-0.483,-0.429,4.83,inactive
RBM3,3,0.212,4.46,6.38,inactive
HTR1B,1,-0.461,-0.274,5.74,inactive
HTR1B,2,-0.272,1.05,4.88,inactive
HTR1B,3,4.75,36.4,14.4,inactive
NOL12,1,-0.202,1.55,5.25,inactive
NOL12,2,3.29,26.1,16.3,inactive
NOL12,3,0.912,9.38,5.17,inactive

Sorted by “G2 cells, % of GMNN control” (lowest first): 3 of the entries above.
gene knocked down,siRNA no.,G2 robust z-score,"G2 cells, % of GMNN control",raw share of cells in G2 (%),call
C15orf32,2,-0.683,-1.84,2.35,inactive
C15orf32,3,-0.0547,2.58,3.97,inactive
TAS2R45,1,0.59,7.12,6.24,inactive
